These are yes or no findings as the source states them, for the method shown. In cells and extracts the contact can be indirect. Some entries that bind do so weakly or less than the wild type.
How the values were obtained:
[1] = target: NS5A of genotype 2a in JFH1 (HCVcc) infected Huh7.5.1 cells (hepatitis C virus genotype 2a (JFH1)) (UniProt Q99IB8); experiment: co-IP; Con1 replicon cells and Huh7.5.1 cells infected with JFH1 for 72 h, lysed directly; anti-NS5A antibody or control mouse IgG; blot with anti-GPS2 antibody
[2] = target: NS5A of genotype 1b in HCV Con1 replicon cells (hepatitis C virus genotype 1b (Con1 replicon)) (UniProt Q9WMX2); experiment: as above

By UniProt entry, the sequences of proteins in these tests, tags left out. Residues count along the entry.
UniProt Q99IB8, residues 1977-2442: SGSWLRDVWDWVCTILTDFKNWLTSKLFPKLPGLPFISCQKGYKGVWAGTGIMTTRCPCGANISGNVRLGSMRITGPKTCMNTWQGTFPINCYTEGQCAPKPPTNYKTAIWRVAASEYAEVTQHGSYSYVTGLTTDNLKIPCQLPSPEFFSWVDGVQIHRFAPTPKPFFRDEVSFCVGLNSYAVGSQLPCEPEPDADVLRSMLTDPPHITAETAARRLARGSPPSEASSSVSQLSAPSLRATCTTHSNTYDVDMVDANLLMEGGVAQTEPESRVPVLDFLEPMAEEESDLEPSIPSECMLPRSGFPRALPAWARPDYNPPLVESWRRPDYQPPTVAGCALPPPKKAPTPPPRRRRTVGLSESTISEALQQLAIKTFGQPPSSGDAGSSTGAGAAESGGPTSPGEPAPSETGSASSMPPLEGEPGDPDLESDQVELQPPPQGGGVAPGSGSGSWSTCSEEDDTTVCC

## endogenous GPS2 (G protein pathway suppressor 2) (from UniProt Q13227-1 1-327)
[1]
  binding: binds
[2]
  binding: binds
